# Paper PMC12608094, “STN1 Shields CTC1 From TRIM32‐Mediated Ubiquitination to Prevent Cellular Aging” (Aging Cell, 2025)
# Results are given in words; binding and its absence hold for the method and conditions named. In cells and extracts the contact can be indirect. Binding can be weak; no strength is given. Where a sequence is shown, tags or fusion partners need not be part of it.
# Columns and labels:
# [1] = molecular target: HA-tagged TRIM32 NHL deletion mutant (ΔNHL) (human); test: co-IP; HEK293T lysates in NP-40 lysis buffer; HA-TRIM32 and mutants precipitated with HA beads, 4°C, 2 h; Flag-CTC1 detected by Western blot
# [2] = molecular target: HA-tagged TRIM32 NHL domain alone (human); test: as above
binder,measurement,setting,value
"Flag-tagged CTC1 (wild type) (protein, UniProt Q2NKJ3 1-1217) MAAGRAQVPSSEQAWLEDAQVFIQKTLCPAVKEPNVQLTPLVIDCVKTVWLSQGRNQGSTLPLSYSFVSVQDLKTHQRLPCCSHLSWSSSAYQAWAQEAGPNGNPLPREQLLLLGTLTDLSADLEQECRNGSLYVRDNTGVLSCELIDLDLSWLGHLFLFPRWSYLPPARWNSSGEGHLELWDAPVPVFPLTISPGPVTPIPVLYPESASCLLRLRNKLRGVQRNLAGSLVRLSALVKSKQKAYFILSLGRSHPAVTHVSIIVQVPAQLVWHRALRPGTAYVLTELRVSKIRGQRQHVWMTSQSSRLLLLKPECVQELELELEGPLLEADPKPLPMPSNSEDKKDPESLVRYSRLLSYSGAVTGVLNEPAGLYELDGQLGLCLAYQQFRGLRRVMRPGVCLQLQDVHLLQSVGGGTRRPVLAPCLRGAVLLQSFSRQKPGAHSSRQAYGASLYEQLVWERQLGLPLYLWATKALEELACKLCPHVLRHHQFLQHSSPGSPSLGLQLLAPTLDLLAPPGSPVRNAHNEILEEPHHCPLQKYTRLQTPSSFPTLATLKEEGQRKAWASFDPKALLPLPEASYLPSCQLNRRLAWSWLCLLPSAFCPAQVLLGVLVASSHKGCLQLRDQSGSLPCLLLAKHSQPLSDPRLIGCLVRAERFQLIVERDVRSSFPSWKELSMPGFIQKQQARVYVQFFLADALILPVPRPCLHSATPSTPQTDPTGPEGPHLGQSRLFLLCHKEALMKRNFCVPPGASPEVPKPALSFYVLGSWLGGTQRKEGTGWGLPEPQGNDDNDQKVHLIFFGSSVRWFEFLHPGQVYRLIAPGPATPMLFEKDGSSCISRRPLELAGCASCLTVQDNWTLELESSQDIQDVLDANKSLPESSLTDLLSDNFTDSLVSFSAEILSRTLCEPLVASLWMKLGNTGAMRRCVKLTVALETAECEFPPHLDVYIEDPHLPPSLGLLPGARVHFSQLEKRVSRSHNVYCCFRSSTYVQVLSFPPETTISIPLPHIYLAELLQGGQSPFQATASCHIVSVFSLQLFWVCAYCTSICRQGKCTRLGSTCPTQTAISQAIIRLLVEDGTAEAVVTCRNHHVAAALGLCPREWASLLDFVQVPGRVVLQFAGPGAQLESSARVDEPMTMFLWTLCTSPSVLRPIVLSFELERKPSKIVPLEPPRLQRFQCGELPFLTHVNPRLRLSCLSIRESEYSSSLGILASSC",binding,[1],binds weakly
same,binding,[2],binds
